From PMC7819943, “Rice protein-binding microarrays: a tool to detect cis-acting elements near promoter regions in rice” come the findings set out here.

Some of the results follow.

This test concerns the target T1, OsSMF1 (Oryza sativa, UniProt Q6ZLB0 1-436).
T1 sequence: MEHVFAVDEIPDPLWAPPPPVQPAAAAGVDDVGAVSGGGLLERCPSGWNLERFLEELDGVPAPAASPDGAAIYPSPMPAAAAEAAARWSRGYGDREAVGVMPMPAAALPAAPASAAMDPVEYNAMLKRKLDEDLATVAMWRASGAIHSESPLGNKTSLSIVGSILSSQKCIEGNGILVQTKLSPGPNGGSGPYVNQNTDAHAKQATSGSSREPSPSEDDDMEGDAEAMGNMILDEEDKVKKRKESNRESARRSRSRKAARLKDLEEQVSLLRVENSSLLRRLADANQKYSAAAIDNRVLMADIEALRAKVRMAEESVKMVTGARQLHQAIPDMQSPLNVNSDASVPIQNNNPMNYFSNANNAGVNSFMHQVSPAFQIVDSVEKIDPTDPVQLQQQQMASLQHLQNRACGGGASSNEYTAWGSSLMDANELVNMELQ
The test is described as follows: protein-binding microarray (RPBM); PBS, 2% BSA, 51.3 ng/ul salmon testes DNA, 50 uM zinc acetate, 200 nM TF, 25 C, 1 h; high values mean tight binding. The conditions noted are these: protein: recombinant; tags: N-terminal polyhistidine and DsRed monomer fusion (pET32a); chain copies: 2; label: CyDye5-dUTP incorporated in the synthesized complementary strand; 3' TTTTT single-stranded linker to array surface; dsDNA, one strand shown. The method in brief:
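Per-feature fluorescence intensity (arbitrary units), read on an Axon 4000B scanner, is the binding signal. Transcription factors carrying an N-terminal polyhistidine tag and DsRed fusion were expressed in E. coli BL21-CodonPlus and purified on Ni–NTA. A custom Agilent array, made double-stranded by primer extension with Cy5-dUTP and blocked with 2% BSA, was incubated with 200 nM protein in PBS, 2% BSA, salmon testes DNA and 50 µM zinc acetate at 25 °C for 1 h and then washed.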
Take “CGGACCAAGTAACTCGTCGTGCCATCAAACCAGGCTACCTCGGAGTCACCTAGTGCAG”: the binding signal is 3170 fluorescence intensity (a.u.). As to “AACCCTTCACGTAAAATTGTTACGCCACGTCATCTACATACGGAGTCACCTAGTGCAG”, the binding signal was 24500 fluorescence intensity (a.u.). On to “CATGTGACATGTTATTTTAGTATCCACGTGGCACGATATGCGGAGTCACCTAGTGCAG”, for which the binding signal is 17400 fluorescence intensity (a.u.). Consider “CTTGCCAGGTCAGACTGTAAGCATAAAGAATCCAATCACGCGGAGTCACCTAGTGCAG”, for which the binding signal is 5160 fluorescence intensity (a.u.). In the case of “ATGCTGCAGCCGATAATGATTCTAAGCCGATGACGCCTTTCGGAGTCACCTAGTGCAG”, the binding signal was 4550 fluorescence intensity (a.u.).

With “GGGGAGGAGGAGGAGGAGGGTAGGGATGGGGAAGAGGAGTCGGAGTCACCTAGTGCAG”, the binding signal is 3650 fluorescence intensity (a.u.). Regarding “ATACATCTTGCTGTTGAATTTCTATCATAATCCCTGTACTCGGAGTCACCTAGTGCAG”, the binding signal is 31100 fluorescence intensity (a.u.).

Take “CTTTGGTCCTCGCCCGCATGCCGCTGTCGCCACCGCTGTGCGGAGTCACCTAGTGCAG”: the binding signal was 3710 fluorescence intensity (a.u.). For “TCTTCCTTGGCGACATCTTCCTAGCTGCCGCTCGGCCGCCCGGAGTCACCTAGTGCAG”, the binding signal was 4090 fluorescence intensity (a.u.). In the case of “GCCGGCGACGACAGGAGCAAGGTGGTGGTGGTGGGCGACGCGGAGTCACCTAGTGCAG” it was 31100 fluorescence intensity (a.u.); in that of “CGATAGCCTATCTTAGGAACCAGTTTTAATGACACTGCAACGGAGTCACCTAGTGCAG”, 4340 fluorescence intensity (a.u.); in that of “CCTTATCCTCGTGAGCGTGACGTGCCCTCGTCGACGCGATCGGAGTCACCTAGTGCAG”, 6440 fluorescence intensity (a.u.). In the case of “CCCCGTCTTCTCATCACCAGCTCAGCTGTGGCCGGCCGCGCGGAGTCACCTAGTGCAG” it was 3770 fluorescence intensity (a.u.). On to “GTTGCCCTCTCCTTCCCGGCGCGGCCACTCCGTCCGCCGCCGGAGTCACCTAGTGCAG”, for which the binding signal was 3290 fluorescence intensity (a.u.). In the case of “CACTCCCTTTCTCTTTCTCAGTGACTGTTCCACTGTCCTGCGGAGTCACCTAGTGCAG” it was 3560 fluorescence intensity (a.u.); in that of “TTCACTCAGAACAGCTTTGCTGAAGAATGCCAAGTATGTCCGGAGTCACCTAGTGCAG”, 3380 fluorescence intensity (a.u.). For “AGTATGTTTCATTTGTCCCGGCCCCACGTATCAATGAAACCGGAGTCACCTAGTGCAG”, the binding signal is 3280 fluorescence intensity (a.u.).

On to “CAAAATTAGGCCGCGTCCTCTTCTCCATTTTCCAGCTAGACGGAGTCACCTAGTGCAG”, for which the binding signal is 3300 fluorescence intensity (a.u.). In the case of “ACGCGGCCGACATGAAGAATTCTTTCACCTCCAAAGTACTCGGAGTCACCTAGTGCAG”, the binding signal is 29900 fluorescence intensity (a.u.).

Turning to “CGATCCGATCCAACTCATCCGACCACGACGTCTCGTCCGGCGGAGTCACCTAGTGCAG”, the binding signal was 3580 fluorescence intensity (a.u.). With “CATTATACATGTGTCATGTGTATTCGACTTCTGTGCTGCCCGGAGTCACCTAGTGCAG”, the binding signal is 4750 fluorescence intensity (a.u.).

In the case of “GTGCAGCAATCATCTCGTCCACCTCACCTTACCCGAAACCCGGAGTCACCTAGTGCAG”, the binding signal is 7430 fluorescence intensity (a.u.). For “GCAACGGATATCGTGCCACGTCGGTTGCCAAGTCAGCACACGGAGTCACCTAGTGCAG”, the binding signal was 26200 fluorescence intensity (a.u.). In the case of “CCCTGCGCCGCGTGACCGTCAACTGACGTGGCCCATCCCTCGGAGTCACCTAGTGCAG”, the binding signal was 16200 fluorescence intensity (a.u.). The same measure for “CTTCCATATATCCTTGTCACAAGCTAGCTCACAAAACTTCCGGAGTCACCTAGTGCAG”: 4680 fluorescence intensity (a.u.). As for “ACCAAAGTTGGTACAAGTGTATAATCAGAATGGGAGAGCGCGGAGTCACCTAGTGCAG”, the binding signal was 21600 fluorescence intensity (a.u.). With “AGTGGCAGGGGTGTGGGGATTGCCGGCTTGCCGCGGAGGACGGAGTCACCTAGTGCAG”, the binding signal was 3530 fluorescence intensity (a.u.).

For the sequence “ATCACGTGATTAAAACAGTAATTATCGAGCACGGAAGGAACGGAGTCACCTAGTGCAG”, the binding signal is 40600 fluorescence intensity (a.u.). With “CTCATCTGTCATACACACTGCGTCTTAAATTCTGTGTTATCGGAGTCACCTAGTGCAG”, the binding signal was 3470 fluorescence intensity (a.u.).

On to “GTACTGACAATAGATCCTTAACAGGGAGAGTTTAGAAATGCGGAGTCACCTAGTGCAG”, for which the binding signal is 26700 fluorescence intensity (a.u.).

For “CATGCTCCACGTCCTTATGTCTCTCCAGTTTTACTGTATCCGGAGTCACCTAGTGCAG”, the binding signal is 6750 fluorescence intensity (a.u.). As for “TATTGATTATGGTGTCATGTCTAGCTGATGGATGACTAATCGGAGTCACCTAGTGCAG”, the binding signal was 4500 fluorescence intensity (a.u.). With “TTATAACCCATATTTCTGGGTGTGGCCTGCCACGTGTCACCGGAGTCACCTAGTGCAG”, the binding signal is 30100 fluorescence intensity (a.u.).

On to “GGAGTATAATAAATACGAAATGAATGACATCAGAGAGTACCGGAGTCACCTAGTGCAG”, for which the binding signal was 3270 fluorescence intensity (a.u.). For “CGGTCCTCCCCTCTCGCCACCACCACATCACGCCGCCGTTCGGAGTCACCTAGTGCAG”, the binding signal is 6760 fluorescence intensity (a.u.). In the case of “CCAACTTCCTGGAAGTTGCAGCCTTGCAGGTGACGCGGCTCGGAGTCACCTAGTGCAG” it was 5180 fluorescence intensity (a.u.); in that of “GTCCCCTGTTGCACTTAGATATTTAACTTTGTTAAGGATTCGGAGTCACCTAGTGCAG”, 4820 fluorescence intensity (a.u.); in that of “TTTTCGATAGATGACGCTGTTGAATTTGGTACACATTTGACGGAGTCACCTAGTGCAG”, 3480 fluorescence intensity (a.u.). On to “TGTTTTAAAATTCTGTAGTGGTGACGGTGACTCCAACCCTCGGAGTCACCTAGTGCAG”, for which the binding signal was 5920 fluorescence intensity (a.u.). Turning to “GTACAGGTGAGTGCCCCACGTGTCACGTTTCTTGCCACGTCGGAGTCACCTAGTGCAG”, the binding signal was 29500 fluorescence intensity (a.u.).

For “TGCTGATGGTCAGGCTTGTTACAGTTGCAGCTGCTAAGGTCGGAGTCACCTAGTGCAG”, the binding signal was 7200 fluorescence intensity (a.u.). With “AATATTCTCTGTCTCGGTGTGGTGTCTCTCCTCTGACGGCCGGAGTCACCTAGTGCAG”, the binding signal is 4810 fluorescence intensity (a.u.).
